Results taken from patent publication US6664232B1 (Kyogo Itoh, priority 1998, dated 2003).
No end group written: not given here.

test: general procedure: Fmoc solid-phase peptide synthesis; Fmoc-Leu-Alko Resin; conditions: whole synthesis, scale 100 mg resin

Sequence	isolated mass
AQKTPYIVL	29.3 mg
LLLCQNKGL	46.3 mg
LLLCQNKGLL	27.1 mg
YVDETGRKL	42.3 mg

test: general procedure: Fmoc solid-phase peptide synthesis; Fmoc-Val-Alko Resin; conditions: whole synthesis, scale 100 mg resin

Sequence	isolated mass
LLETTVQKV	32.2 mg
RVKAPNKSL	44.7 mg
